# Measured values published in article PMC7819943, “Rice protein-binding microarrays: a tool to detect cis-acting elements near promoter regions in rice”.
# The other results are listed elsewhere or left out.
# Target: T1, OsSMF1 (Oryza sativa, UniProt Q6ZLB0 1-436)
# T1 sequence: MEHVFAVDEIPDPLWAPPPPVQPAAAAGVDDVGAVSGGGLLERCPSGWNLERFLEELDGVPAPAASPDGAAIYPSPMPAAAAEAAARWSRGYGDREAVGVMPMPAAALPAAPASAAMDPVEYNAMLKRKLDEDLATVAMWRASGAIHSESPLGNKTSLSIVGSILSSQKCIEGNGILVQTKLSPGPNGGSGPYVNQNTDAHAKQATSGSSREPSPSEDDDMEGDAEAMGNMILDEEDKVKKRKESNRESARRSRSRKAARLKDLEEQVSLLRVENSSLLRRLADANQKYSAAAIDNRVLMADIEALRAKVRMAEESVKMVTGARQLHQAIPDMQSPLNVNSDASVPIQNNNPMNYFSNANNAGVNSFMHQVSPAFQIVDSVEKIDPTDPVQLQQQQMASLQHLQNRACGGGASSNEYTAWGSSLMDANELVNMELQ
# Assay: protein-binding microarray (RPBM); PBS, 2% BSA, 51.3 ng/ul salmon testes DNA, 50 uM zinc acetate, 200 nM TF, 25 C, 1 h; high values mean tight binding
# Conditions: protein: recombinant; tags: N-terminal polyhistidine and DsRed monomer fusion (pET32a); chain copies: 2; label: CyDye5-dUTP incorporated in the synthesized complementary strand; 3' TTTTT single-stranded linker to array surface; dsDNA, one strand shown
# Outline: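 The binding signal is fluorescence intensity per array feature (arbitrary units). Readings came from an Axon 4000B scanner after a washed, 2% BSA-blocked, double-stranded custom Agilent array had been incubated for 1 h at 25 °C with 200 nM protein and 50 µM zinc acetate. The protein was a Ni–NTA-purified transcription factor fused N-terminally to polyhistidine and DsRed, expressed in E. coli BL21-CodonPlus.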
row,Sequence,binding signal
1,CTCGCGGCGCTCGCCATGGCGTGGAGACGTGGGACGTCGCCGGAGTCACCTAGTGCAG,3470 fluorescence intensity (a.u.)
2,ATCCAATCCATGGACCGTCTCGTCCTTTGCTTGGGTTGCTCGGAGTCACCTAGTGCAG,28800 fluorescence intensity (a.u.)
3,AATAACCATGTATTGCAATTGACTCATAATAATACATGACCGGAGTCACCTAGTGCAG,30000 fluorescence intensity (a.u.)
4,GGGACTAAAGATGCTCAGCCGGCCACGTGGCTGAGCCATCCGGAGTCACCTAGTGCAG,12800 fluorescence intensity (a.u.)
5,AAACCTATGACAATCAACCTTTTGACTGTCATACTAGCTCCGGAGTCACCTAGTGCAG,3920 fluorescence intensity (a.u.)
6,GTTAGTCCACTCAATACACTCATTGCCTCATCATCGTGTCCGGAGTCACCTAGTGCAG,6330 fluorescence intensity (a.u.)
7,GTCCTACTAATATGTGGGCCACTAGTCATCGTCATGAAGTCGGAGTCACCTAGTGCAG,3500 fluorescence intensity (a.u.)
8,AGGGGAGGAGGCATGAGAGGATGGTGACGTTGCTCCGGCCCGGAGTCACCTAGTGCAG,6230 fluorescence intensity (a.u.)
9,CGGTAGGCCTCGTTGGAGCGGCGGGTTGGCCAGCGCGTGGCGGAGTCACCTAGTGCAG,3160 fluorescence intensity (a.u.)
10,TCAGTGTGATAAATGTCACATTGATGTGGCTCAAGATGTGCGGAGTCACCTAGTGCAG,5580 fluorescence intensity (a.u.)
11,GAGTCCATGACCAGCGTCAATCGCCTGGCGCGCCAACTGTCGGAGTCACCTAGTGCAG,3680 fluorescence intensity (a.u.)
12,GCGACCAGTTCGGTTTACTGTTCTGAATTTCTTCGCGGAACGGAGTCACCTAGTGCAG,3940 fluorescence intensity (a.u.)
13,TGGCCCAATCGTGTGCTGAACCCGTGCCGCGTGCGTGCGACGGAGTCACCTAGTGCAG,4160 fluorescence intensity (a.u.)
14,GCTTCAGCGTCCGCAATATGGGCCACTTTAATTGGTCCTGCGGAGTCACCTAGTGCAG,4490 fluorescence intensity (a.u.)
15,AAACTTACACCCATGATACATTACAAGTTTGGTTTTCTAACGGAGTCACCTAGTGCAG,29800 fluorescence intensity (a.u.)
16,TTCATTGTCACCCTAGATGATGTCTTATTCTTGTCGATGTCGGAGTCACCTAGTGCAG,3460 fluorescence intensity (a.u.)
17,CACCACCATCGCCGCCGTTATCCACTTCATCACCGGCCACCGGAGTCACCTAGTGCAG,3280 fluorescence intensity (a.u.)
18,ATAACCTAATATAAAGTTCGCTCATATGAAAATTTAAACTCGGAGTCACCTAGTGCAG,51600 fluorescence intensity (a.u.)
19,TAGAATGGGTCATATCTAAACTACACTTATGGTGACACATCGGAGTCACCTAGTGCAG,4130 fluorescence intensity (a.u.)
20,TAACCGTCAGCCCCGTCCTGTTCCCTAACAAATCCACCACCGGAGTCACCTAGTGCAG,3530 fluorescence intensity (a.u.)
21,AACACCTGCCATGCCATGCCACGTACGTGGAGTGGCCACCCGGAGTCACCTAGTGCAG,15400 fluorescence intensity (a.u.)
22,ATATATAAATTTTAGTCATCAGATTTTCTATCATTACAGTCGGAGTCACCTAGTGCAG,3860 fluorescence intensity (a.u.)
23,CTGCCTCTGCCGCCGTCACGCTGAACGCGCCTCACCGGCTCGGAGTCACCTAGTGCAG,3400 fluorescence intensity (a.u.)
24,CATCATAGATCGTTCACACGTCTCAACATCCCAAATTATCCGGAGTCACCTAGTGCAG,3290 fluorescence intensity (a.u.)
25,CTAACTAAGCCGATCTGCATCTTGAAATCTGCTGCACCTTCGGAGTCACCTAGTGCAG,7090 fluorescence intensity (a.u.)
26,GTCCATCGGATCGGGAGCGCGCGGCGAGGCAGGCGGGGTCCGGAGTCACCTAGTGCAG,44300 fluorescence intensity (a.u.)
27,ATGAAAGGTGTACATGATGTGTTCCATATTTCCATGCTGACGGAGTCACCTAGTGCAG,4570 fluorescence intensity (a.u.)

# For convenience, some entries already given:
row,Sequence,binding signal
23,CTGCCTCTGCCGCCGTCACGCTGAACGCGCCTCACCGGCTCGGAGTCACCTAGTGCAG,3400 fluorescence intensity (a.u.)
24,CATCATAGATCGTTCACACGTCTCAACATCCCAAATTATCCGGAGTCACCTAGTGCAG,3290 fluorescence intensity (a.u.)
25,CTAACTAAGCCGATCTGCATCTTGAAATCTGCTGCACCTTCGGAGTCACCTAGTGCAG,7090 fluorescence intensity (a.u.)
26,GTCCATCGGATCGGGAGCGCGCGGCGAGGCAGGCGGGGTCCGGAGTCACCTAGTGCAG,44300 fluorescence intensity (a.u.)

# The list goes on:

row,Sequence,binding signal
1,TGGGCGGGTGTGTCGGATGTTGACGATGGCGAAGGAGAGGCGGAGTCACCTAGTGCAG,5230 fluorescence intensity (a.u.)
2,ACAGGGTCGCAGTGATGAGCTGCCATCTTTGTACTGTTCCCGGAGTCACCTAGTGCAG,3950 fluorescence intensity (a.u.)
3,ACCCTTGAAGTGGTATGAATGCCATTTTAGTTATTTCGGGCGGAGTCACCTAGTGCAG,6250 fluorescence intensity (a.u.)
4,TCTGCTGATGATCTCTCTCTCTCTCTGTTTCAAAGCTGATCGGAGTCACCTAGTGCAG,44700 fluorescence intensity (a.u.)
5,CGAAACAACCAGTTCCTTCCCACGTCGCACACTCGCACCCCGGAGTCACCTAGTGCAG,4650 fluorescence intensity (a.u.)
6,AGCTAACAAGTTGAGGGACCTTGCGTGTACTCTTTCCTACCGGAGTCACCTAGTGCAG,4780 fluorescence intensity (a.u.)
7,CTCGACACCTCACCCACCTCTCCCATTCTCTCTCCTTCTCCGGAGTCACCTAGTGCAG,5370 fluorescence intensity (a.u.)
8,CAGGGTCAAAGATGCCACGTGGGACAATCTGCCTCCAAAACGGAGTCACCTAGTGCAG,18500 fluorescence intensity (a.u.)
9,ATCTTGTACATTGCACAAATTGACTATTGGTTTGTAGGAGCGGAGTCACCTAGTGCAG,3220 fluorescence intensity (a.u.)
10,GTCGAATCCCGGAGCCCTCGCCATCGCCCACGCCCTCGCGCGGAGTCACCTAGTGCAG,3200 fluorescence intensity (a.u.)
11,GAAAGCGCTGCAACTGCAAGGTTTATAAGGCATGAATCTGCGGAGTCACCTAGTGCAG,3570 fluorescence intensity (a.u.)
12,AAACACTCATGGCCGACACTGATAGAACACGTCAAACTGTCGGAGTCACCTAGTGCAG,3630 fluorescence intensity (a.u.)
13,TGGCTTTGTTAATCTCAAGATATGCTGATGTAAGCGTGTTCGGAGTCACCTAGTGCAG,7340 fluorescence intensity (a.u.)
14,CCCTCAAGGGCTCAAAACACTCAAACAGTTCTACATATATCGGAGTCACCTAGTGCAG,57600 fluorescence intensity (a.u.)
15,AAACCCCATCCCGAACATGGTTAAATGTCAATTTTCTCCACGGAGTCACCTAGTGCAG,11700 fluorescence intensity (a.u.)
16,ATGCACAAGTTTAAAATAGCTATAATATGTTGCGTGGACACGGAGTCACCTAGTGCAG,3990 fluorescence intensity (a.u.)
17,AAGCTCCGTCACGGACAAGTGGGCCCCATTAGCAGCTTCCCGGAGTCACCTAGTGCAG,3490 fluorescence intensity (a.u.)
18,GGAGATGATGAAGCTGGCTAAGTATACCGTCGAAGAGTTCCGGAGTCACCTAGTGCAG,3310 fluorescence intensity (a.u.)
19,CGAATTATGTAATTTGTGTATAAAGTTTGATACGGATCGACGGAGTCACCTAGTGCAG,3220 fluorescence intensity (a.u.)
20,TCGGCTGCCTTTGCGGCCGGCCCGCACGTGACGCGATCGACGGAGTCACCTAGTGCAG,3720 fluorescence intensity (a.u.)
21,GTTCTTTGAGGCCCAAATCACACGGGCCGCCCGTTTCGTCCGGAGTCACCTAGTGCAG,33100 fluorescence intensity (a.u.)
22,GTTTTAATCCCGGTTTTGTCCTACGTGGCTGCTAAATCAGCGGAGTCACCTAGTGCAG,12600 fluorescence intensity (a.u.)
23,ACACACGAGGAGATGCCGCTTTATTGTTGACATGTCATTTCGGAGTCACCTAGTGCAG,3490 fluorescence intensity (a.u.)
24,GCGCATCTCGTCTCGTCGAAGCGAGCGAAACCACACGCGGCGGAGTCACCTAGTGCAG,4560 fluorescence intensity (a.u.)
25,TCGAATGTGCCACATCTCTTTTCTTCTCTCCTGTCTCCTTCGGAGTCACCTAGTGCAG,3900 fluorescence intensity (a.u.)
26,TCGTTTCTGGGCCGGCCCTTCTCCTATCGTACGTGGCTGGCGGAGTCACCTAGTGCAG,6410 fluorescence intensity (a.u.)
27,TAAATTCTTTCTTAGTCATTGTTTTAAGAATGGTTGAGCCCGGAGTCACCTAGTGCAG,5030 fluorescence intensity (a.u.)
